Results on 48 compounds are retold here after the supplement of paper PMC7752906.

Counter-ions that a name gives are not always drawn. Some of the results follow. Repeats in this data set agree poorly, so a single value says little.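 About 40 Schistosoma mansoni schistosomula per well were imaged over time in bright field and compared with 0.1% DMSO wells. A drug counts as a hit if its Mahalanobis distance reaches 2.47 or more, three standard deviations above the DMSO control mean. Degeneracy is the fraction of worms scored opaque.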

This assay has as its system Schistosoma mansoni schistosomula. Kind of assay: Mahalanobis distance of static-rate-frequency phenotype descriptors from DMSO controls (dimensionless); higher = stronger phenotypic change versus DMSO. Particulars: 10 µM; 72 h.
Take `N[C@@H](Cc1cc(I)c(Oc2ccc(O)c(I)c2)c(I)c1)C(=O)O` [Liothyronine]: the Mahalanobis distance is inactive: 1.66. Regarding `CC1CC(OC(=O)c2ccccc2O)CC(C)(C)C1` (stereo not drawn) [Homosalate], the Mahalanobis distance is inactive: 2.24. The value for `O=C(CCCN1CCN(c2ccccn2)CC1)c1ccc(F)cc1` [Azaperone] was active: 3.86; that for `C[C@@H](O)[C@@H]1NC(=O)[C@H](CCCCN)NC(=O)[C@@H](Cc2c[nH]c3ccccc23)NC(=O)[C@H](Cc2ccccc2)NC(=O)[C@@H](NC(=O)[C@H](N)Cc2ccccc2)CSSC[C@@H](C(=O)N[C@H](CO)[C@@H](C)O)NC1=O` [Octreotide] was inactive: 1.91. For `CC[C@@H]1C(=O)OC[C@@H]1Cc1cncn1C` [Pilocarpine], the Mahalanobis distance is inactive: 1.75. On to `CN1C(=O)CC[C@H]1c1cccnc1` [Cotinine], for which the Mahalanobis distance is inactive: 2.05. With `Cc1c(NC(=O)c2cccnc2)c(=O)n(-c2ccccc2)n1C` [Nifenazone], the Mahalanobis distance was inactive: 1.94. The value for `NC(=O)CCCCC1CCSS1` (stereo not drawn) [Lipoamide] was inactive: 1.69. Under `C=C(C)[C@H]1CC=C(C)CC1` [D-limonene] stands inactive: 2.18; under `N[C@@H](Cc1c[nH]c2ccccc12)C(=O)O` [Tryptophan], active: 2.89. For the compound `O=C(OOC(=O)c1ccccc1)c1ccccc1` [Benzoyl Peroxide], the Mahalanobis distance was inactive: 1.56. With `CC(O)Cn1cnc2c1c(=O)n(C)c(=O)n2C` (stereo not drawn) [Proxyphylline], the Mahalanobis distance is active: 2.95. The value for `CC(=O)NS(=O)(=O)c1ccc(N)cc1` [Sulfacetamide] was inactive: 1.79; that for `C=CC1=C(C(=O)O)N2C(=O)[C@@H](NC(=O)/C(=N\O)c3csc(N)n3)[C@H]2SC1` [cefdinir] was inactive: 2.05. For `OCc1ccccc1O[C@@H]1O[C@H](CO)[C@@H](O)[C@H](O)[C@H]1O` [Salicin], the Mahalanobis distance was inactive: 1.51. Consider `COc1cccc2c1C(=O)c1c(O)c3c(c(O)c1C2=O)C[C@@](O)(C(C)=O)C[C@@H]3O[C@H]1C[C@H](N)[C@H](O)[C@H](C)O1` [Daunorubicin], for which the Mahalanobis distance is active: 4.22. The value for `O=c1oc2c(O)c(O)cc3c(=O)oc4c(O)c(O)cc1c4c23` [Ellagic Acid] was inactive: 1.86. For the compound `O=c1n(CCCN2CCN(c3cccc(Cl)c3)CC2)nc2ccccn12` [Trazodone], the Mahalanobis distance was inactive: 1.11. For the compound `CC(=O)NCCCCCC(=O)O` [Acexamic Acid], the Mahalanobis distance is inactive: 2.02.

Consider `O=C(O)c1cc(=O)[nH]c(=O)[nH]1` [Orotic Acid], for which the Mahalanobis distance is inactive: 1.54. In the case of `C=C[C@H]1CN2CC[C@H]1C[C@H]2[C@H](O)c1ccnc2ccc(OC)cc12` [Quinine], the Mahalanobis distance was inactive: 2.02.

`C=C[C@H]1CN2CC[C@H]1C[C@H]2[C@H](O)c1ccnc2ccc(OC)cc12` [Quinine Sulfate]: the Mahalanobis distance is active: 2.69.

Take `CC1(C)S[C@@H]2[C@H](NC(=O)[C@H](N)c3ccccc3)C(=O)N2[C@H]1C(=O)O` [Ampicillin Sodium]: the Mahalanobis distance is inactive: 1.71. For the compound `CCC(NC(C)C)C(O)c1ccc(O)c2[nH]c(=O)ccc12` (stereo not drawn) [Procaterol Hcl Hemihydrate], the Mahalanobis distance is inactive: 2.16. Turning to `O=C(O)c1ccccc1OP(=O)(O)O` [Fosfosal], the Mahalanobis distance is inactive: 2.25. As for `C/C=C(/C(=C/C)c1ccc(O)cc1)c1ccc(O)cc1` [Dienestrol], the Mahalanobis distance was inactive: 1.93. With `Cc1ncc([N+](=O)[O-])n1CC(C)O` (stereo not drawn) [Secnidazole], the Mahalanobis distance was inactive: 1.46. `Nc1cc(N2CCCCC2)nc(N)[n+]1[O-]` [Minoxidil]: the Mahalanobis distance is active: 3.39.

In the case of `COc1ccc2cc([C@H](C)C(=O)O)ccc2c1` [Naproxen], the Mahalanobis distance is inactive: 1.54. Take `CCCN(CCC)CCc1cccc2c1CC(=O)N2` [Ropinirole Hydrochloride]: the Mahalanobis distance was inactive: 1.93.

As to `C/C=C/c1ccc(OC)cc1` [Anethole], the Mahalanobis distance is inactive: 0.986. `CC(=O)O[C@H]1C(=O)[C@@]2(C)[C@H]([C@H](OC(=O)c3ccccc3)[C@]3(O)C[C@H](OC(=O)[C@H](O)[C@@H](NC(=O)c4ccccc4)c4ccccc4)C(C)=C1C3(C)C)[C@]1(OC(C)=O)CO[C@@H]1C[C@@H]2O` [Taxol, Paclitaxel]: the Mahalanobis distance is inactive: 2.46. For the compound `NC(=O)c1cnccn1` [Pyrazinamide], the Mahalanobis distance was inactive: 2.01. With `CCCCC[C@H](O)/C=C/[C@H]1[C@H](O)CC(=O)[C@@H]1C/C=C\CCCC(=O)O` [Dinoprostone], the Mahalanobis distance is inactive: 2.27. The value for `Cc1nc2ccccn2c(=O)c1CCN1CCC(C(=O)c2ccc(F)cc2)CC1` [Pirenperone] was active: 3.31. On to `O=C(CCNNC(=O)c1ccncc1)NCc1ccccc1` [Nialamide], for which the Mahalanobis distance was active: 7.76. On to `CCOC(=S)SSC(=S)OCC` [Dixanthogen], for which the Mahalanobis distance is inactive: 1.14.

Consider `Cc1cc2c(s1)Nc1ccccc1N=C2N1CCN(C)CC1` [Olanzapine], for which the Mahalanobis distance was inactive: 1.33. For `CC(C)OC(=O)C(C)(C)Oc1ccc(C(=O)c2ccc(Cl)cc2)cc1` [Fenofibrate], the Mahalanobis distance is active: 2.78. For `CC(N)CCCC(C)(C)O` (stereo not drawn) [Heptaminol Hydrochloride], the Mahalanobis distance was inactive: 1.89.

On to `CC(=O)N(c1onc(C)c1C)S(=O)(=O)c1ccc(N)cc1` [Sulfisoxazole Acetyl], for which the Mahalanobis distance was inactive: 2.09.

With `C[C@@H](O[C@H]1OCCN(Cc2n[nH]c(=O)[nH]2)[C@H]1c1ccc(F)cc1)c1cc(C(F)(F)F)cc(C(F)(F)F)c1` [Aprepitant], the Mahalanobis distance was active: 2.6. For `O=C(O)c1cc(/N=N/c2ccc(S(=O)(=O)Nc3ccccn3)cc2)ccc1O` [Sulfasalazine], the Mahalanobis distance was inactive: 1.39. With `CCOc1ccc2nc(S(N)(=O)=O)sc2c1` [Ethoxzolamide], the Mahalanobis distance is inactive: 1.64. `O=C(O)c1ccccc1O` [Salicylic Acid]: the Mahalanobis distance is inactive: 2.08. Consider `CC(C)n1c(/C=C/C(O)CC(O)CC(=O)O)c(-c2ccc(F)cc2)c2ccccc21` (stereo not drawn) [fluvastatin], for which the Mahalanobis distance was inactive: 2.32. For the compound `CCCCNc1cc(C(=O)O)cc(S(N)(=O)=O)c1Oc1ccccc1` [Bumetanide], the Mahalanobis distance is inactive: 1.6. As to `COC(=O)N[C@H](C(=O)N[C@@H](Cc1ccccc1)[C@@H](O)CN(Cc1ccc(-c2ccccn2)cc1)NC(=O)[C@@H](NC(=O)OC)C(C)(C)C)C(C)(C)C` [Atazanavir], the Mahalanobis distance was active: 3.22.
